Measurements from patent publication US20040176285A1, “Tip39 polypeptides” (priority 2001, published 2004).
Like-named read-outs stand apart in the source and are kept apart here. For at least one compound, name, drawing or mass did not settle the structure. Where a SMILES comes first, the peptide text is derived from it.

The chains behind the UniProt entries cited, without tags or fusion partners. Residues count along the entry.
UniProt P49190, 25-550: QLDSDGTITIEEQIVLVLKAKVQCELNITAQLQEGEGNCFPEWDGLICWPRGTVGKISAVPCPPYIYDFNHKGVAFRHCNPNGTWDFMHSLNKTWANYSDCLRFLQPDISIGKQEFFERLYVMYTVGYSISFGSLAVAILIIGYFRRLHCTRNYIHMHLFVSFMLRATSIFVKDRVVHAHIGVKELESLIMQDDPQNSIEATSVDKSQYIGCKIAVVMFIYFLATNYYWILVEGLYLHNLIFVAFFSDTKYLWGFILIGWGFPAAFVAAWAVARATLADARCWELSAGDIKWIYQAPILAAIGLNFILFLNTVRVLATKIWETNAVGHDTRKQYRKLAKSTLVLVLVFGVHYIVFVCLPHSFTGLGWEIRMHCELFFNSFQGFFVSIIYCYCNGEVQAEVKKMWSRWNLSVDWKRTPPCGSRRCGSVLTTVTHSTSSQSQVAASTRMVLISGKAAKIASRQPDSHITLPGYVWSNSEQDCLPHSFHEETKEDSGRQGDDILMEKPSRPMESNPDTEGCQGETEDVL

What was measured:
Type in all cases: cell-based
PTH1R = target: T1, PTH1R (Homo sapiens, UniProt Q03431); assay: Ligand-stimulated cAMP accumulation in HKrk-B7 cells; set-up: expressed in transfected cells; conditions: mean±SE
T1 sequence (Q03431 27-593): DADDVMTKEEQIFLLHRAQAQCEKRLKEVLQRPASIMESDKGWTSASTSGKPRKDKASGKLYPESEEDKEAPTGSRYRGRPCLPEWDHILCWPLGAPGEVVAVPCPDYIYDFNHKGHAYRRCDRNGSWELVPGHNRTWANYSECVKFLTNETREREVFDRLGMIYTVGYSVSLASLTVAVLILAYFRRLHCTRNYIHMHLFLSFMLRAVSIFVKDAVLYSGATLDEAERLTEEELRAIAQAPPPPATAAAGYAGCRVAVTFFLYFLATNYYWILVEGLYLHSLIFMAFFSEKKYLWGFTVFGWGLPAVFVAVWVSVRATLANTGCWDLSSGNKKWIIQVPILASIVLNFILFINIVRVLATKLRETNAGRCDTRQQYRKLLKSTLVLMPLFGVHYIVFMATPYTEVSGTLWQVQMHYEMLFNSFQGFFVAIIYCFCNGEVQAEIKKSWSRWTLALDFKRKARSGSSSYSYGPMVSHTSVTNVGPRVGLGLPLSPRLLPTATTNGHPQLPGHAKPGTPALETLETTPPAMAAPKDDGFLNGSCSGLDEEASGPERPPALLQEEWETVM
Method: (§1) DMEM, Trypsin/EDTA, and penicillin G/streptomycin and horse serum were from Gibco/BRL, Life Technologies, Gaithersburg, Md. LLC-PK, expressing the recombinant human PTH1R (HKrk-B7 cells) and SaOS-2 cells expressing the wild-type PTH1R endogenously were cultured in DMEM supplemented with 10% heat-inactivated fetal bovine serum, 100 U/ml penicillin, 100 μg/ml streptomycin, as previously described (Gardella, T. J., et al., J. Biol. Chem. 271:19888-19893 (1996); Fukayama, S., et al., Endocrinology 134:1851-1858 (1994)); both cell lines were maintained in a humidified atmosphere containing 95% air and 5% CO2. After seeding, medium was replaced daily, until cells were used for radioligand binding or cAMP accumulation assays.
(§2) Na^125I (specific activity: 2,000 Ci/mmol) was purchased from DuPont/NEN, Boston, Mass. Fetal bovine serum, 3-isobutyl-1-methyl-xanthine (IBMX), and BSA were from Sigma, St. Louis, Mo., and trifluoroacetic acid (TFA) was from Pierce, Rockford, Ill. […] The entire lysate was counted for γ-irradiation. Specific binding was determined after subtracting radioactivity bound in the presence of maximal concentrations of unlabeled competing peptide (10^−6 M). […] Data were analyzed and graphically illustrated using the graph-pad prism software package. […]

endogenous PTH1R = target: T2, endogenous PTH1R (Homo sapiens, UniProt Q03431); assay: Ligand-stimulated cAMP accumulation in SaOS-2 cells; conditions: mean±SE
T2 construct: SaOS-2 cells expressing the wild-type PTH1R endogenously; endogenous in cells; host or cells: SaOS-2 human osteosarcoma cells
T2 sequence (Q03431 27-593): T1 sequence (Q03431 27-593)
Method: as §1, §2

human PTH2 receptor [1] = target: T3, human PTH2 receptor (Homo sapiens, UniProt P49190); assay: Inhibition of agonist-stimulated cAMP accumulation in hPR2-20 LLCPK1 cells; conditions: cells expressing the PTH2 receptor
T3 construct: expressed in transfected cells
Excerpt: FIG. 8. […] Data are expressed as % of half-maximal cAMP accumulation and represent the results (mean±SE) of at least three independent experiments.

human PTH2 receptor [2] = target: T3, human PTH2 receptor; assay: Ligand-stimulated cAMP accumulation in hPR2-20 LLCPK1 cells

Question: Which EC50 (PTH1R) does the source give for `CC[C@H](C)[C@H](NC(=O)[C@H](CO)NC(=O)[C@H](CCCCN)NC(=O)CNC(=O)[C@H](CCCCN)NC(=O)[C@H](CC(=O)O)NC(=O)[C@H](Cc1c[nH]cn1)NC(=O)[C@H](CC(C)C)NC(=O)[C@H](CC(C)C)NC(=O)[C@H](CCC(N)=O)NC(=O)[C@H](Cc1c[nH]cn1)NC(=O)[C@H](CCC(=O)O)NC(=O)[C@H](CO)NC(=O)[C@@H](NC(=O)[C@H](C)N)C(C)C)C(=O)N[C@@H](CCC(N)=O)C(=O)N[C@@H](CC(=O)O)C(=O)N[C@@H](CC(C)C)C(=O)N[C@@H](CCCNC(=N)N)C(=O)N[C@@H](CCCNC(=N)N)C(=O)N[C@@H](CCCNC(=N)N)C(=O)N[C@@H](Cc1c[nH]cn1)C(=O)N[C@@H](Cc1c[nH]c2ccccc12)C(=O)N[C@@H](CC(C)C)C(=O)N[C@@H](CC(N)=O)C(=O)N[C@@H](CO)C(=O)N[C@@H](Cc1ccc(O)cc1)C(=O)N[C@@H](CCSC)C(=O)N[C@@H](Cc1c[nH]cn1)C(=O)N[C@@H](CCCCN)C(=O)N[C@@H](CC(C)C)C(=O)N[C@@H](CC(C)C)C(=O)N[C@H](C(=O)N[C@@H](CC(C)C)C(=O)N[C@@H](CC(=O)O)C(=O)N[C@@H](C)C(=O)N1CCC[C@H]1C(N)=O)C(C)C` [PTHrP(1-20)/TIP(23-39)] (H-AVSEHQLLHDKGKSIQDLRRRHWLNSYMHKLLVLDAP-NH2) here?
Answer: 1.4 ± 0.3 nM

Question: What about the EC50 (endogenous PTH1R) of the same molecule?
Answer: 0.38 ± 0.12 nM

Question: `CSCC[C@H](NC(=O)[C@H](Cc1ccc(O)cc1)NC(=O)[C@H](CO)NC(=O)[C@H](CC(N)=O)NC(=O)[C@H](CC(C)C)NC(=O)[C@H](Cc1c[nH]c2ccccc12)NC(=O)[C@H](Cc1c[nH]cn1)NC(=O)[C@H](CCCNC(=N)N)NC(=O)[C@H](CCCNC(=N)N)NC(=O)[C@H](CCC(=O)O)NC(=O)[C@H](CC(C)C)NC(=O)[C@H](C)NC(=O)[C@H](C)NC(=O)[C@H](CC(C)C)NC(=O)[C@H](CC(C)C)NC(=O)[C@H](CCCNC(=N)N)NC(=O)[C@H](C)NC(=O)[C@H](CCCNC(=N)N)NC(=O)[C@H](CCC(=O)O)NC(=O)[C@H](CCCNC(=N)N)NC(=O)[C@H](Cc1ccccc1)NC(=O)[C@H](C)N)C(=O)N[C@@H](Cc1c[nH]cn1)C(=O)N[C@@H](CCCCN)C(=O)N[C@@H](CC(C)C)C(=O)N[C@@H](CC(C)C)C(=O)N[C@H](C(=O)N[C@@H](CC(C)C)C(=O)N[C@@H](CC(=O)O)C(=O)N[C@@H](C)C(=O)N1CCC[C@H]1C(N)=O)C(C)C` [TIP(9-39)] (H-AFRERARLLAALERRHWLNSYMHKLLVLDAP-NH2) was tested. Which IC50 (human PTH2 receptor [1]; agonist 1 nM PTH-(1-34), read-out: IC50 of inhibition of PTH-(1-34) activity) did it give?
Answer: 110 nM

Question: And the IC50 (human PTH2 receptor [1]; agonist 1 nM human TIP39, read-out: IC50 of inhibition of human TIP39-stimulated cAMP accumulation)?
Answer: 4000 nM

Question: With `CSCC[C@H](NC(=O)[C@H](Cc1ccc(O)cc1)NC(=O)[C@H](CO)NC(=O)[C@H](CC(=O)O)NC(=O)[C@H](CC(C)C)NC(=O)[C@H](Cc1c[nH]c2ccccc12)NC(=O)[C@H](CCC(=O)O)NC(=O)[C@H](CCCNC(=N)N)NC(=O)[C@H](CCCNC(=N)N)NC(=O)[C@H](CCC(=O)O)NC(=O)[C@H](CC(C)C)NC(=O)[C@H](C)NC(=O)[C@H](C)NC(=O)[C@H](CC(C)C)NC(=O)[C@H](CC(C)C)NC(=O)[C@H](CCCNC(=N)N)NC(=O)[C@H](C)NC(=O)[C@H](CCCNC(=N)N)NC(=O)[C@H](CCC(=O)O)NC(=O)[C@H](CCCNC(=N)N)NC(=O)[C@H](Cc1ccccc1)NC(=O)[C@H](C)NC(=O)[C@H](C)NC(=O)[C@H](CC(=O)O)NC(=O)[C@H](CC(=O)O)NC(=O)[C@H](C)NC(=O)[C@H](CC(C)C)NC(=O)[C@H](C)NC(=O)[C@H](CC(C)C)NC(=O)[C@@H](N)CO)C(=O)N[C@@H](CCC(N)=O)C(=O)N[C@@H](CCCCN)C(=O)N[C@@H](CC(C)C)C(=O)N[C@@H](CC(C)C)C(=O)N[C@@H](CC(C)C)C(=O)N[C@@H](CC(C)C)C(=O)N[C@@H](CC(=O)O)C(=O)N[C@@H](C)C(=O)N1CCC[C@H]1C(N)=O` [mouse TIP39] (H-SLALADDAAFRERARLLAALERREWLDSYMQKLLLLDAP-NH2) as the molecule, how does the EC50 (human PTH2 receptor [2]) read?
Answer: 0.74 nM
